Strings that start with PEPTIDE1 are HELM notation: dots part the residues, brackets hold end groups and non-standard residues.
Test: general procedure: Fmoc solid-phase peptide synthesis; 2-chlorotrityl chloride resin; HATU/DIPEA; PyBOP/DIPEA for DOTA-tris(tBu) ester
Conditions: whole synthesis

Substance: PEPTIDE1{[DOTA].[Ahx].V.S.G.W.R.L.F.K.K.I.S}$$$$V2.0
- isolated yield: 16.8%

— article PMC11312113 (2024)
